Holding throughout (test): pull-down
Experiment [1] concerns the target PDGFRA (UniProt P16234).
Experiment [2] deals with BAP1 (UniProt Q92560).
The target in experiment [3] is HMGB1 (UniProt P09429).

The chains behind the UniProt entries cited, without tags or fusion partners. Residues count along the entry.
UniProt P16234, residues 24-528: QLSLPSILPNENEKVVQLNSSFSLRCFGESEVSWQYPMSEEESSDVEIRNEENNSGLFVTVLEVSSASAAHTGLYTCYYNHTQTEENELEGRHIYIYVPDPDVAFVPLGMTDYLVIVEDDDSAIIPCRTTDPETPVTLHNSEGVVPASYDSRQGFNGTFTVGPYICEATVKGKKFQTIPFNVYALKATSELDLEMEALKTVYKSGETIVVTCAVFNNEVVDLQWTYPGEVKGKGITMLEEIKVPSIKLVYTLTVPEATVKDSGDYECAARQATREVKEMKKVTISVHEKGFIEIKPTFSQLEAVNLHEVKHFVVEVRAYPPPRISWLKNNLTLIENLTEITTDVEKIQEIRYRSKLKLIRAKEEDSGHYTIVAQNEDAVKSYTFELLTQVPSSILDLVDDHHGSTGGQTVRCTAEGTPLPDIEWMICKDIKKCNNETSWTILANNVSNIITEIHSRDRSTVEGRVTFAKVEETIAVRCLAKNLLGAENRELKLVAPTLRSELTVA
UniProt Q92560: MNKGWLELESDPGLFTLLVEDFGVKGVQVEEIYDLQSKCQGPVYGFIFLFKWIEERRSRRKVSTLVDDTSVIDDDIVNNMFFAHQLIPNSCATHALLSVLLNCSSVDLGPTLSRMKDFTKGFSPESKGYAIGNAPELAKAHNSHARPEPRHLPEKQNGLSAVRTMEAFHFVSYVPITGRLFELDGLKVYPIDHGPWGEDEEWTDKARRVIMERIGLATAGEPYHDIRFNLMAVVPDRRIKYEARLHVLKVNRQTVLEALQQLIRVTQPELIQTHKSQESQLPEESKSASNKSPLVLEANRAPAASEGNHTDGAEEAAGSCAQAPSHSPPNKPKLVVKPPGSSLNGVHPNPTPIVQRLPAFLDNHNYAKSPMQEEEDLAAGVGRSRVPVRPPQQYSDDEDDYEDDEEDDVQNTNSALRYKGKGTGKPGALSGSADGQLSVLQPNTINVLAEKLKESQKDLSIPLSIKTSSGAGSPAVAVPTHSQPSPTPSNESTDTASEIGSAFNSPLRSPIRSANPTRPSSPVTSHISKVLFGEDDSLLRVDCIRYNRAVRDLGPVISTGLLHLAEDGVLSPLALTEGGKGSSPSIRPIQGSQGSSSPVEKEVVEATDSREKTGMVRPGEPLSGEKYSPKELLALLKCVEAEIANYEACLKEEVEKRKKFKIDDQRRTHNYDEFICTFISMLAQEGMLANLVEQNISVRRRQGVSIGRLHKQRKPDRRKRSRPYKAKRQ
UniProt P09429: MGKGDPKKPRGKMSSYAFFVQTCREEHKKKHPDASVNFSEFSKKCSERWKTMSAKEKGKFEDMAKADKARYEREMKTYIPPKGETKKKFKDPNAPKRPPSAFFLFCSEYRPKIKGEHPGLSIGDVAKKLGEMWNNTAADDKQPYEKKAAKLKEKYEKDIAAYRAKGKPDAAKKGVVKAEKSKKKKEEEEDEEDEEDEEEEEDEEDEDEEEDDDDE
UniProt P02768, residues 25-609: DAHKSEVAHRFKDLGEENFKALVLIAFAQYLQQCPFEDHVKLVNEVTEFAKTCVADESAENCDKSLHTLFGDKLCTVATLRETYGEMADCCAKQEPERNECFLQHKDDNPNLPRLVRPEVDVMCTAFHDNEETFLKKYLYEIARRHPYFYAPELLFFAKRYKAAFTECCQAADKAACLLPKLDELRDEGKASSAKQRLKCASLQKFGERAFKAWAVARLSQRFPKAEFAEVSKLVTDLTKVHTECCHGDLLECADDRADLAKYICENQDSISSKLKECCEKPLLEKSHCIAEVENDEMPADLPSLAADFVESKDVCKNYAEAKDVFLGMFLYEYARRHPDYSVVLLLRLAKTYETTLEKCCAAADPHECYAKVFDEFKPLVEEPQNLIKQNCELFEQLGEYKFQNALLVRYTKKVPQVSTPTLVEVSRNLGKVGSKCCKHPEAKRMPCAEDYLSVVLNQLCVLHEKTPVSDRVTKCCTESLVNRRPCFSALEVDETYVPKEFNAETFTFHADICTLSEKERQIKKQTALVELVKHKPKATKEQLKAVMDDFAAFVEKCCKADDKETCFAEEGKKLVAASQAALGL
UniProt P26678: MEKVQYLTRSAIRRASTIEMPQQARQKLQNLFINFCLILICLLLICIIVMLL

No constants are given. Whether binding was seen depends on the method and setting. Some binding calls cover weakened binding; strength is not graded here.

Consider ALB (from UniProt P02768 25-609), for which the binding result in experiment [1] was “binds”. For the molecule “phospholambin (from UniProt P26678 1-52)”, the binding entry in experiment [2] was “no binding”.

B1: CUTA (protein, UniProt O60888 33-179)
chain: RLLLLPRVLLTMASGSPPTQPSPASDSGSGYVPGSVSAAFVTCPNEKVAKEIARAVVEKRLAACVNLIPQITSIYEWKGKIEEDSEVLMMIKTQSSLVPALTDFVRSVHPYEVAEVIALPVEQGNFPYLQWVRQVTESVSDSITVLP
For B1, the binding result in experiment [3] is “binds”.

B2: PARP3 (protein, UniProt Q9Y6F1 1-533)
chain: MAPKPKPWVQTEGPEKKKGRQAGREEDPFRSTAEALKAIPAEKRIIRVDPTCPLSSNPGTQVYEDYNCTLNQTNIENNNNKFYIIQLLQDSNRFFTCWNRWGRVGEVGQSKINHFTRLEDAKKDFEKKFREKTKNNWAERDHFVSHPGKYTLIEVQAEDEAQEAVVKVDRGPVRTVTKRVQPCSLDPATQKLITNIFSKEMFKNTMALMDLDVKKMPLGKLSKQQIARGFEALEALEEALKGPTDGGQSLEELSSHFYTVIPHNFGHSQPPPINSPELLQAKKDMLLVLADIELAQALQAVSEQEKTVEEVPHPLDRDYQLLKCQLQLLDSGAPEYKVIQTYLEQTGSNHRCPTLQHIWKVNQEGEEDRFQAHSKLGNRKLLWHGTNMAVVAAILTSGLRIMPHSGGRVGKGIYFASENSKSAGYVIGMKCGAHHVGYMFLGEVALGREHHINTDNPSLKSPPPGFDSVIARGHTEPDPTQDTELELDGQQVVVPQGQPVPCPEFSSSTFSQSEYLIYQESQCRLRYLLEVHL
Consider B2, for which the binding entry in experiment [2] is reported as “binds”.

The record behind these values is article doi:10.1101/459065.
